No constants are given. Whether binding was seen depends on the method and setting. Binding seen in cells or lysates may run through a third protein. Some binding calls cover weakened binding; strength is not graded here.
Biological target: T1, Foxa-2 (wildtype, rat coding region in pcDNA3) (rat) (UniProt P32182)
T1 sequence (looked up): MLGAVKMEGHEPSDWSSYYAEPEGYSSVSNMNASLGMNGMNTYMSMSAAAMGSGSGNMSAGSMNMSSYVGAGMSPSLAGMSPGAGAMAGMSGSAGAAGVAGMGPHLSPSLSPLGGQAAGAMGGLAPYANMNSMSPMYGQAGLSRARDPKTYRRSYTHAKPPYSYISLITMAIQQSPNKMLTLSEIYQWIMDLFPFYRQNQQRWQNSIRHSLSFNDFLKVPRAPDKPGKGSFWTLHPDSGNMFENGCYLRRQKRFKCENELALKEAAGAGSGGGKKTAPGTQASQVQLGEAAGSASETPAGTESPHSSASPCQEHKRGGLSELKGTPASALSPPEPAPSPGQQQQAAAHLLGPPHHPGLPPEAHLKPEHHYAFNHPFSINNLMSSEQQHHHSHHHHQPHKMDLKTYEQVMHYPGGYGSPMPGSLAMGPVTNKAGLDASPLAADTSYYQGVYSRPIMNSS
Experiment: co-immunoprecipitation from transfected HEK/293 cells (anti-HA IP, Western blot for Foxa-2; the reverse anti-Foxa-2 IP also coprecipitated Akt)

The chains behind the UniProt entries cited, without tags or fusion partners.
UniProt P31749: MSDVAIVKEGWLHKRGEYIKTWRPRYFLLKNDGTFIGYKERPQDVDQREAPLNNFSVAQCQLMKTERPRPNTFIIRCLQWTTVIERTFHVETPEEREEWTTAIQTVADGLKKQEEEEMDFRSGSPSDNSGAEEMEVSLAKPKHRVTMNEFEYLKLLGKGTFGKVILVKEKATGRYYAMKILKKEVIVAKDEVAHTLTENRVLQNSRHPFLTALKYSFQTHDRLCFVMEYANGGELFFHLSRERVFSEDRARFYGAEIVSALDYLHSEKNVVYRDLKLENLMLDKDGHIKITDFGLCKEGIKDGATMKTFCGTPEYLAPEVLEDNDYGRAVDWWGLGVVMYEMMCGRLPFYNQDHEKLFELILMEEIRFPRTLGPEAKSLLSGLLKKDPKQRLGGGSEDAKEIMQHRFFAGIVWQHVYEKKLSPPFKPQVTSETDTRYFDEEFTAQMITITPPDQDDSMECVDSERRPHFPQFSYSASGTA

binding: binds
Substance: HA-Akt (human Akt1 fused to an N-terminal HA-tag, expressed from pCMV-HA-Akt) (from UniProt P31749 1-480) (enzyme)

Reference: patent US20070166710A1, “Methods for inhibiting adipogenesis and for treating type 2 diabetes” (priority 2003, published 2007)
